Structures were worked out from names or drawings and are uncertain.
Legend:
[1] = target: inactive form of GP IIb/IIIa (unactivated GP IIb/IIIa) (Homo sapiens, UniProt P05106+P08514); assay: Fluorescence displacement of probe 2-8 from inactive (unactivated) form of GP IIb/IIIa; details: read-out: Ki (nM) (unactivated GP IIb/IIIa); unactivated GP IIb/IIIa (Table 1)
ADP-stimulated platelets = assay: Fibrinogen Receptor Antagonist Assay: ADP-stimulated platelet aggregation (gel-filtered human platelets); details: read-out: IC50 (nM) (aggregation); gel-filtered human platelets 2×10^8 per ml, fibrinogen 100 μg/ml, Ca^2+ 1 mM, 10 μM ADP, 37° C.

Chains of the proteins cited; added tags and fusions are not shown. Residues count along the entry.
UniProt P05106, 27-788 limits assumed: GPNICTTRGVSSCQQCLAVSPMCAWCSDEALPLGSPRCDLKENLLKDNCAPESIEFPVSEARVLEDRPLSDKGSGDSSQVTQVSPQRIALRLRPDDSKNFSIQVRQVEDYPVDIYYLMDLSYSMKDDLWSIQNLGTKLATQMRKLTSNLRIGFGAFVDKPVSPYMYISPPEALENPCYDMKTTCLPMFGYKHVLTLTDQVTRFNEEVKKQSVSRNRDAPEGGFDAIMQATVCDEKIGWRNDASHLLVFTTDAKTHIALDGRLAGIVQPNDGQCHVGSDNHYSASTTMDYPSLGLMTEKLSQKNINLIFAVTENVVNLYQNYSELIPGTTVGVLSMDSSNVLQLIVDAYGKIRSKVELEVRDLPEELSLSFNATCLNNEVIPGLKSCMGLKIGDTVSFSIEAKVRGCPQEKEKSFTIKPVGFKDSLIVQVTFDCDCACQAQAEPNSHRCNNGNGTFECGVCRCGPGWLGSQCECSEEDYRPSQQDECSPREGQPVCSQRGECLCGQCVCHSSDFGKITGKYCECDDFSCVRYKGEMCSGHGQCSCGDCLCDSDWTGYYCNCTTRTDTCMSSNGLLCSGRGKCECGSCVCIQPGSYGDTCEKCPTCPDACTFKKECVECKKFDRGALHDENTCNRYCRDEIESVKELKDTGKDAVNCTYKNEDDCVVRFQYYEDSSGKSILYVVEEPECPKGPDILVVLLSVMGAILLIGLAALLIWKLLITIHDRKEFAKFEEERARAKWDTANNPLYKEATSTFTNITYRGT
UniProt P08514, 32-887 limits assumed: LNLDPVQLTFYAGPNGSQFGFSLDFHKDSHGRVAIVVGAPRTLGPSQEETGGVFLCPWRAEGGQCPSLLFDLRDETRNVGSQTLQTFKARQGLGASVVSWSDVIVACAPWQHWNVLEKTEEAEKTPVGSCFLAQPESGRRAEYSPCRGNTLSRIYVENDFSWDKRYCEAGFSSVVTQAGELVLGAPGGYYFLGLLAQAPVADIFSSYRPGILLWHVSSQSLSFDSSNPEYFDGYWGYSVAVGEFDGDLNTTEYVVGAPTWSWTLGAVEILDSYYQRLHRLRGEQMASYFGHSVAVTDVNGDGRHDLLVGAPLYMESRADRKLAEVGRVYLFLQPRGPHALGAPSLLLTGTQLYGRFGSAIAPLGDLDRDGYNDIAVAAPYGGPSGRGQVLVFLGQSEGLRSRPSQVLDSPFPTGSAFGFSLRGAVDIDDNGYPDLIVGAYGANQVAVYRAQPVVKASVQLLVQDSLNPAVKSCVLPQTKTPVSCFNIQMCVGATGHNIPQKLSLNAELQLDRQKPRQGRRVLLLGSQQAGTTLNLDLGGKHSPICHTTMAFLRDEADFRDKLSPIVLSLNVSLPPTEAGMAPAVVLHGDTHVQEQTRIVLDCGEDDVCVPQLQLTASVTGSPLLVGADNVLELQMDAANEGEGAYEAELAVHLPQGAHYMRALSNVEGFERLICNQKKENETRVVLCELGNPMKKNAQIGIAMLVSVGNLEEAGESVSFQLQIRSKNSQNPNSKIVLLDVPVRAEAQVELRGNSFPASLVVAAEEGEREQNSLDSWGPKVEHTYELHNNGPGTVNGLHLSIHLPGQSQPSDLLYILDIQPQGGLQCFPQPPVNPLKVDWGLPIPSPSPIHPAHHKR
UniProt P08514, 891-1039 partner limits assumed: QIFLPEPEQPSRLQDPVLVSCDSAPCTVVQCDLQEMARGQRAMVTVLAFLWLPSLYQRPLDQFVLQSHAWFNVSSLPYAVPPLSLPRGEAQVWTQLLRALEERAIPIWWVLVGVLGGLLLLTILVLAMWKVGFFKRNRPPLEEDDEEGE

Question: How did the Ki [1] turn out when `CC(=O)N[C@H]1CSSC[C@@H](C(=O)O)NC(=O)[C@H](CC(=O)O)NC(=O)CNC(=O)[C@H](Cc2ccc(CN)cc2)NC(=O)[C@H]2N(CSC2(C)C)C(=O)[C@H](CC(N)=O)NC1=O` was run?
Answer: The Ki was 3100 nM.

Question: And the IC50 (ADP-stimulated platelets)?
Answer: The IC50 was 23 nM.

Source: US5646000A, “Compounds and methods for identifying activated platelets” (Merck & Co., Inc., priority 1994, dated 1997)
